Measurements reported in PubChem BioAssay AID1224828 (NIAID, 2016)

Assay: 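Find genes required for NF-kappaB p65 moving into the nucleus after LPS in mouse macrophages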 (primary screen)
Cell system: mouse RAW264.7 G9 macrophage reporter cells (GFP-p65, Tnf promoter-mCherry)
Reagent: siRNA pool against mouse genes, 100 nM
Timing: 2 days siRNA transfection, then 40 min LPS before fixation
Challenge: LPS (Salmonella minnesota R595) at 10 ng/ml
Measured: 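Imaged p65 nuclear translocation ratio, normalised to the plate median, converted to robust z-scores and averaged across two replicates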
Direction: p65 translocation robust z-score: higher = more nuclear NF-kappaB p65 after LPS than the plate median; nuclear/cytoplasmic p65 ratio: higher = more nuclear NF-kappaB p65
Hit rule: 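Called active when z exceeds 3.3 or falls under -1.56 (median of Tlr4 controls), giving activity score of at least 50; no calls for control wells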
Calls: active = hit (p65 shift raised or lowered); inactive = no clear change
The whole screen tested about 17,000 reagents; this is a random part of them. Of all reagents, 762 (4.5%) got an active call. 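Active calls include both raised and lowered p65 entry, mostly lowered; wells with fewer than 50 cells lack a z-score.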 Raw values are not corrected between plates. Unmarked entries are inactive. The numbers tell different reagents against one gene apart.

| p65 translocation robust z-score | nuclear/cytoplasmic p65 ratio, rep 1 | nuclear/cytoplasmic p65 ratio, rep 2 | low cell count flag | Target gene | reagent no. |
| --- | --- | --- | --- | --- | --- |
| 0.05 | 1.52 | 1.6 | enough cells to score | Spic | 1 |
| – | 1.24 | 1.15 | fewer than 50 cells per well; well left out of scoring | Asxl2 | 1 |
| 0.65 | 1.8 | 1.62 | enough cells to score | Nfrkb | 1 |
| 0.81 | 1.66 | 1.81 | enough cells to score | Ptpmt1 | 1 |
| -0.21 | 1.41 | 1.2 | enough cells to score | Clpb | 1 |
| -0.66 | 1.35 | 1.27 | enough cells to score | Ndrg1 | 1 |
| -1.39 | 1.61 | 1.34 | enough cells to score | Ndrg1 | 2 |
| 0.04 | 1.58 | 1.54 | enough cells to score | Smarcd3 | 1 |
| -0.98 | 1.45 | 1.3 | enough cells to score | Zbtb7b | 1 |
| – | 1.21 | 1.19 | fewer than 50 cells per well; well left out of scoring | Apol10b | 1 |
| 6.02 (active) | 1.56 | 3.13 | enough cells to score | Rhobtb2 | 1 |
| – | 1.31 | 1.23 | fewer than 50 cells per well; well left out of scoring | Pip4k2b | 1 |
| 0.95 | 1.88 | 1.66 | enough cells to score | Or5as1 | 1 |
| 0.3 | 1.52 | 1.4 | enough cells to score | Dbnl | 1 |
| -1.49 | 1.41 | 1.38 | enough cells to score | Aplp2 | 1 |
| -1.29 | 1.28 | 1.19 | enough cells to score | Arl9 | 1 |
| 0.1 | 1.64 | 1.76 | enough cells to score | Hexim1 | 1 |
| 0.12 | 1.53 | 1.36 | enough cells to score | Kcnc4 | 1 |
| 0.04 | 1.49 | 1.61 | enough cells to score | Gpr50 | 1 |
| 0.51 | 1.88 | 1.65 | enough cells to score | Mup4 | 1 |
| 1.62 | 1.83 | 1.55 | enough cells to score | Dcun1d4 | 1 |
| -0.36 | 1.52 | 1.73 | enough cells to score | Slc46a1 | 1 |
| -0.19 | 1.51 | 1.52 | enough cells to score | Gpr35 | 1 |
| 0.62 | 1.69 | 1.6 | enough cells to score | Atp5pb | 1 |
| -0.02 | 1.48 | 1.62 | enough cells to score | Shc2 | 1 |
| 1.35 | 1.55 | 1.33 | enough cells to score | Tex21 | 1 |
| 1.21 | 1.92 | 1.83 | enough cells to score | Mrgprb4 | 1 |
| -0.25 | 1.42 | 1.31 | enough cells to score | Napb | 1 |
| -0.63 | 1.44 | 0.987 | enough cells to score | Rab30 | 1 |
| 0.8 | 1.52 | 1.28 | enough cells to score | Pygb | 1 |
| -0.72 | 1.34 | 1.01 | enough cells to score | Or13a25 | 1 |
| – | 1.44 | 1.38 | fewer than 50 cells per well; well left out of scoring | Or1b1 | 1 |
| – | 1.2 | 1.43 | fewer than 50 cells per well; well left out of scoring | Trappc13 | 1 |
| -0.3 | 1.44 | 1.51 | enough cells to score | Cd40lg | 1 |
| 1.02 | 1.62 | 1.28 | enough cells to score | Rbm28 | 1 |
| 0.47 | 1.53 | 1.27 | enough cells to score | Rnf13 | 1 |
| 0.52 | 1.48 | 1.49 | enough cells to score | Cdc25c | 1 |
| -0.44 | 1.72 | 1.52 | enough cells to score | Mycbpap | 1 |
| 0.17 | 1.57 | 1.6 | enough cells to score | Asb5 | 1 |
| 2.04 | 2.05 | 1.6 | enough cells to score | Irak1 | 1 |
| 0.69 | 1.45 | 1.53 | enough cells to score | Fkbp3 | 1 |
| 0.19 | 1.5 | 1.26 | enough cells to score | Kcns3 | 1 |
| – | 1.24 | 1.26 | fewer than 50 cells per well; well left out of scoring | Prss42 | 1 |
| – | 1.16 | 0.988 | fewer than 50 cells per well; well left out of scoring | Surf2 | 1 |
| -1.25 | 1.32 | 1.43 | enough cells to score | Dnah1 | 1 |
| -0.98 | 1.29 | 1.28 | enough cells to score | Dnah1 | 2 |
| – | 1.23 | 1.14 | fewer than 50 cells per well; well left out of scoring | Fads2 | 1 |
| 0.46 | 1.39 | 1.53 | enough cells to score | H2-Q10 | 1 |
| -1.09 | 1.48 | 1.39 | enough cells to score | Greb1 | 1 |
| 0.45 | 1.45 | 1.57 | enough cells to score | Spaca4 | 1 |
| – | 1.26 | 1.21 | fewer than 50 cells per well; well left out of scoring | Aida | 1 |
| – | 1.15 | 0.995 | fewer than 50 cells per well; well left out of scoring | Zfp235 | 1 |
| 0.42 | 1.6 | 1.61 | enough cells to score | Gpr176 | 1 |
| -0.29 | 1.57 | 1.58 | enough cells to score | Apof | 1 |
| 0.55 | 1.58 | 1.61 | enough cells to score | Dus1l | 1 |
| -0.68 | 1.46 | 1.44 | enough cells to score | Tmem39b | 1 |
| -0.72 | 1.55 | 1.6 | enough cells to score | Chst11 | 1 |
| – | 1.26 | 1.34 | fewer than 50 cells per well; well left out of scoring | Iba57 | 1 |
| -0.37 | 1.28 | 1.48 | enough cells to score | Iba57 | 2 |

Reformatted: entries from further up
{"Target gene":"Nfrkb","reagent no.":1,"p65 translocation robust z-score":0.65,"nuclear/cytoplasmic p65 ratio, rep 1":1.8,"nuclear/cytoplasmic p65 ratio, rep 2":1.62,"low cell count flag":"enough cells to score"}
{"Target gene":"Ptpmt1","reagent no.":1,"p65 translocation robust z-score":0.81,"nuclear/cytoplasmic p65 ratio, rep 1":1.66,"nuclear/cytoplasmic p65 ratio, rep 2":1.81,"low cell count flag":"enough cells to score"}
{"Target gene":"Clpb","reagent no.":1,"p65 translocation robust z-score":-0.21,"nuclear/cytoplasmic p65 ratio, rep 1":1.41,"nuclear/cytoplasmic p65 ratio, rep 2":1.2,"low cell count flag":"enough cells to score"}
{"Target gene":"Ndrg1","reagent no.":1,"p65 translocation robust z-score":-0.66,"nuclear/cytoplasmic p65 ratio, rep 1":1.35,"nuclear/cytoplasmic p65 ratio, rep 2":1.27,"low cell count flag":"enough cells to score"}
{"Target gene":"Ndrg1","reagent no.":2,"p65 translocation robust z-score":-1.39,"nuclear/cytoplasmic p65 ratio, rep 1":1.61,"nuclear/cytoplasmic p65 ratio, rep 2":1.34,"low cell count flag":"enough cells to score"}
